{"sequences": {"note": "Amino acid sequences for entries named in this document (tags omitted). A change or cut given only in a name is not applied to a line headed by its entry.", "UniProt Q15714": "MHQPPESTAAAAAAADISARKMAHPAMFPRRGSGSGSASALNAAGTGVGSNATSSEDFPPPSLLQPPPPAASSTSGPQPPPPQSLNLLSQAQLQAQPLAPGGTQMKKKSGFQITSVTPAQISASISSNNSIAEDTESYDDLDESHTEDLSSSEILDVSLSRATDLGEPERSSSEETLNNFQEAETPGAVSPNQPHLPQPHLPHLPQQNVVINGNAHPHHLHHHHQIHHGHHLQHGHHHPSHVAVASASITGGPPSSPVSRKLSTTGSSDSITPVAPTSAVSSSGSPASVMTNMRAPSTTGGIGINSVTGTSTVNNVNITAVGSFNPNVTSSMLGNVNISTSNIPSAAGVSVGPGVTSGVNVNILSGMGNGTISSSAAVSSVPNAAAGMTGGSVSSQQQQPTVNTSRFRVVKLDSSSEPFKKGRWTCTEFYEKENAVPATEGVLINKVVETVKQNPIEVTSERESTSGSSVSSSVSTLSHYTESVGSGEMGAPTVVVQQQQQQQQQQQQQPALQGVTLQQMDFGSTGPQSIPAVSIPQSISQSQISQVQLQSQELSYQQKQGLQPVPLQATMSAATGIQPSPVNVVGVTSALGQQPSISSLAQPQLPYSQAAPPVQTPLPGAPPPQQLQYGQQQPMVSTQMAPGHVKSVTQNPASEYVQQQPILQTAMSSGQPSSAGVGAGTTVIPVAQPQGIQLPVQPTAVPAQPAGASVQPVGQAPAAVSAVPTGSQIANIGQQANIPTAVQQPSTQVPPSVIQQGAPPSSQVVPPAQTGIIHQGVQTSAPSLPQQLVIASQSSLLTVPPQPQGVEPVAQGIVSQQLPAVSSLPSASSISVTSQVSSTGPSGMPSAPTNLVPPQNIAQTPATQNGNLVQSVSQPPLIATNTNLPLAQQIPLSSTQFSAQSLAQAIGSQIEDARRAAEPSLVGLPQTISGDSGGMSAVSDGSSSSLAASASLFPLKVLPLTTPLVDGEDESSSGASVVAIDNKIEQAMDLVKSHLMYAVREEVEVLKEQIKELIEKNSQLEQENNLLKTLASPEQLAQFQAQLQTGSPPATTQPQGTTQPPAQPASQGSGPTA", "UniProt P13693": "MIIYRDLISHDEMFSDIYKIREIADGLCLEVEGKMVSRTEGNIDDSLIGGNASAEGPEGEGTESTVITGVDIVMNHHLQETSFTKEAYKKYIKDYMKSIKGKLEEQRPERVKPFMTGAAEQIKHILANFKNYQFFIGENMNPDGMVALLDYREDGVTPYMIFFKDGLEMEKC", "UniProt Q15645": "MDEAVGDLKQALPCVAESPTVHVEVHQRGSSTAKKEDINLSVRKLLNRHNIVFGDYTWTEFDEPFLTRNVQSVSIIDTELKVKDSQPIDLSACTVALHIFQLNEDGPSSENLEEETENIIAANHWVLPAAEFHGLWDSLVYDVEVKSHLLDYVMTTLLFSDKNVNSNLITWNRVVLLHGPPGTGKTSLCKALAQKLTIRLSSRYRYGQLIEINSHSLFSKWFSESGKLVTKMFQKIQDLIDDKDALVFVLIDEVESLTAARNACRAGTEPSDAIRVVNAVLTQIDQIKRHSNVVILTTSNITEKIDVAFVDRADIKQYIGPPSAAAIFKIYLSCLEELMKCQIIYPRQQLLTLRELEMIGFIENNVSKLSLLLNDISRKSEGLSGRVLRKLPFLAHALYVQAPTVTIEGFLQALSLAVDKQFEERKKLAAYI", "UniProt Q13625": "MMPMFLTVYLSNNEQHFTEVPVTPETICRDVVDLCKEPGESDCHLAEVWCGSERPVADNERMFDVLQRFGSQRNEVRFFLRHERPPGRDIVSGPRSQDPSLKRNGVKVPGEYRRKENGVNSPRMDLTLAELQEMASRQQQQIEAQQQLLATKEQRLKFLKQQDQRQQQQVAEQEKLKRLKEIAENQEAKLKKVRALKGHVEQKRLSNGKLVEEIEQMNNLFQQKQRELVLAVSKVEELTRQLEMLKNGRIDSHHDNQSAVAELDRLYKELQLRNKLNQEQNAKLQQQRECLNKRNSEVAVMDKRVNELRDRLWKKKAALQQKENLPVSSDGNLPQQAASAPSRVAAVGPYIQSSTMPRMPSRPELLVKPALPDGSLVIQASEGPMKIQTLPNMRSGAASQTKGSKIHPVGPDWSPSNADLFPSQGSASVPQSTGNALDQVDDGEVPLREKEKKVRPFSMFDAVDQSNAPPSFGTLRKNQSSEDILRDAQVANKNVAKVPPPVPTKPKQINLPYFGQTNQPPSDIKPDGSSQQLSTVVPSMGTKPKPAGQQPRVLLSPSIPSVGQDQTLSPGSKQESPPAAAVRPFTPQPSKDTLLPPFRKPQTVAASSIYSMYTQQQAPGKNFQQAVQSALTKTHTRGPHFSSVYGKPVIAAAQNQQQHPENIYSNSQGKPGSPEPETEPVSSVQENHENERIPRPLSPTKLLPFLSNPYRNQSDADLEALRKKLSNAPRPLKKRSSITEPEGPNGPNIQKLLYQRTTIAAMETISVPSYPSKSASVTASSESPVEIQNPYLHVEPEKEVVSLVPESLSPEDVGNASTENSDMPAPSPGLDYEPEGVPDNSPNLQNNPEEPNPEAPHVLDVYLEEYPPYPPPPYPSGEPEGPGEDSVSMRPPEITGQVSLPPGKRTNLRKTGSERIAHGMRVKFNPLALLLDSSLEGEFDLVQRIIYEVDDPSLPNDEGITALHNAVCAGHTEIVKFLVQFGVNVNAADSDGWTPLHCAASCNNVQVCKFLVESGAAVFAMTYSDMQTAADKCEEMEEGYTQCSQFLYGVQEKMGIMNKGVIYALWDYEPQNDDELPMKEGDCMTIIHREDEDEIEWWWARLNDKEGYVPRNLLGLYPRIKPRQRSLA", "UniProt Q9UKE5": "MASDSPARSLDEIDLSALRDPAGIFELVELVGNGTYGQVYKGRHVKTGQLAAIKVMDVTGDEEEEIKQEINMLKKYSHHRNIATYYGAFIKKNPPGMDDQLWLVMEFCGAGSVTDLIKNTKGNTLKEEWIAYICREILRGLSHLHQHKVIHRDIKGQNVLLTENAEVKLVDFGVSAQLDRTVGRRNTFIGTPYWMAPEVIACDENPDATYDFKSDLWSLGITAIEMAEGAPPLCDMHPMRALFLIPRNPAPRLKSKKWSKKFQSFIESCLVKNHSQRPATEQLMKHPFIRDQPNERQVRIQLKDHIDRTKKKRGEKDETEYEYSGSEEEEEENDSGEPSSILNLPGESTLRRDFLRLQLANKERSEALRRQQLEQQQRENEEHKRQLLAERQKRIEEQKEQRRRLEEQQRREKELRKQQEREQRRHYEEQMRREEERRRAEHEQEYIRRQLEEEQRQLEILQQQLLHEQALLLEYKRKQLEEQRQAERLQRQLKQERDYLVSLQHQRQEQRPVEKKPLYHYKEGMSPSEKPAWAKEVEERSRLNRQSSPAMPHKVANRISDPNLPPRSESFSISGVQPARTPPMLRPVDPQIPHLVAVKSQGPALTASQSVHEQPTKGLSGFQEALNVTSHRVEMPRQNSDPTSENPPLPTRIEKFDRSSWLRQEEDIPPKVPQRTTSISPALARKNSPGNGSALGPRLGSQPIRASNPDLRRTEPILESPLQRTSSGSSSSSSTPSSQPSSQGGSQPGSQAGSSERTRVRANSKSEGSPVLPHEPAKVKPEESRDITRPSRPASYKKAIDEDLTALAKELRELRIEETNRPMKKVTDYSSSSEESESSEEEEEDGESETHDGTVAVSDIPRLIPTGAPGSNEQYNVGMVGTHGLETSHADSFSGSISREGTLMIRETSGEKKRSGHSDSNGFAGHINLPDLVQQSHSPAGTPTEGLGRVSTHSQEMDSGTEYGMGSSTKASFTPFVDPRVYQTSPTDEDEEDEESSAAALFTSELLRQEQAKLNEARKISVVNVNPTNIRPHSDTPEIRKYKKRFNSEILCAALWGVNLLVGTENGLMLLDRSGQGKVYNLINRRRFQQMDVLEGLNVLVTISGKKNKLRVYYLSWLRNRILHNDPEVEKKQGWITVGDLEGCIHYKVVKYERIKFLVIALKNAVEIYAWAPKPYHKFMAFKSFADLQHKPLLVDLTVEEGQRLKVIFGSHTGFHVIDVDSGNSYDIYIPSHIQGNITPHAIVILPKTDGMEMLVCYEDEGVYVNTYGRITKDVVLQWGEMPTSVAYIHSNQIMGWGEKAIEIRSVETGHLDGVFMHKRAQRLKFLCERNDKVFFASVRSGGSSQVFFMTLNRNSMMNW", "UniProt Q9Y296, whole entry, looked up": "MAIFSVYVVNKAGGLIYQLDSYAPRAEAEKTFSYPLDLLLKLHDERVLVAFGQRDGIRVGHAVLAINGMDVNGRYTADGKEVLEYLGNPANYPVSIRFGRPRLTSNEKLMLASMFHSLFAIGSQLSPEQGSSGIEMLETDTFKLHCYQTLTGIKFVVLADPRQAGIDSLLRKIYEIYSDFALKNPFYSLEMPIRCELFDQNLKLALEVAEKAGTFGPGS", "UniProt Q15388, whole entry, looked up": "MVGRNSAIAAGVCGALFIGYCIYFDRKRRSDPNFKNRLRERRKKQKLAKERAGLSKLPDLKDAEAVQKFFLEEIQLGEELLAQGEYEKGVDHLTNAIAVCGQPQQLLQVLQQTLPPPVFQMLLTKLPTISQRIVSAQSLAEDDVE", "UniProt Q96Q11": "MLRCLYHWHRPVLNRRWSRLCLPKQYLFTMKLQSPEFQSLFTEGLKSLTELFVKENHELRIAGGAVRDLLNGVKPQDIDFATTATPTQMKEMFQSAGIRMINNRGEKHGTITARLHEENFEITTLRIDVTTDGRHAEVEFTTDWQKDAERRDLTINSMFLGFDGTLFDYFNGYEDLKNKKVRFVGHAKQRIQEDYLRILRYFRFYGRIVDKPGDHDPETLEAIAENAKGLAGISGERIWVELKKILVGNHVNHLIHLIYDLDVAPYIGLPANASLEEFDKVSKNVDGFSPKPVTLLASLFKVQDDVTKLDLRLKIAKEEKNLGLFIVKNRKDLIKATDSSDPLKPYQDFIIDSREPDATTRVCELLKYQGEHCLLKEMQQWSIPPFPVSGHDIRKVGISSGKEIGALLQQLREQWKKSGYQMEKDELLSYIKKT", "UniProt P55327": "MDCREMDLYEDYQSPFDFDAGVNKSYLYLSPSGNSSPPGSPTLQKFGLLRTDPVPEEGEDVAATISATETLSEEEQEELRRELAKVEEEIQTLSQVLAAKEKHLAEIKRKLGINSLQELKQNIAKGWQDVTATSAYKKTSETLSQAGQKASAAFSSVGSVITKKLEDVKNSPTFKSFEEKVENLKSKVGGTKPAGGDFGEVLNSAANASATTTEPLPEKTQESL", "UniProt Q12931": "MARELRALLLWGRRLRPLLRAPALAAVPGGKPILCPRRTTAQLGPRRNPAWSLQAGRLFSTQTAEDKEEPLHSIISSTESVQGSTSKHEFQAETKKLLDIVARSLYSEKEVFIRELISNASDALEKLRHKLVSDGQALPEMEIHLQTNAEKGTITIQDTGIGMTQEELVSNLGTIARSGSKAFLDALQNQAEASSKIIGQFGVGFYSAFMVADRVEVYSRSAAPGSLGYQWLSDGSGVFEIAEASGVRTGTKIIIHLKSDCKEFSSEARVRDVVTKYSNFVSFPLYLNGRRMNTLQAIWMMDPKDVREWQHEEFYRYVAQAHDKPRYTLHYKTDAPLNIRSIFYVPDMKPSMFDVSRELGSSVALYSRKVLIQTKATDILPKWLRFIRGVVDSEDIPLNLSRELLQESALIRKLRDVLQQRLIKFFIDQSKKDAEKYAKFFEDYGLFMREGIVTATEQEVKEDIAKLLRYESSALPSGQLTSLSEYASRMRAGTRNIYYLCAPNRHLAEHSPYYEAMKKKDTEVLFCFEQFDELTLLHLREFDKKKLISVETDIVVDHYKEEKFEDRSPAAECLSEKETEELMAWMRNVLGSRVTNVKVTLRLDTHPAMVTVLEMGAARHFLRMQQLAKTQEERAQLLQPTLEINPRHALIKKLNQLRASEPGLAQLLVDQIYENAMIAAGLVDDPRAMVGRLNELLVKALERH", "UniProt Q9NXH9": "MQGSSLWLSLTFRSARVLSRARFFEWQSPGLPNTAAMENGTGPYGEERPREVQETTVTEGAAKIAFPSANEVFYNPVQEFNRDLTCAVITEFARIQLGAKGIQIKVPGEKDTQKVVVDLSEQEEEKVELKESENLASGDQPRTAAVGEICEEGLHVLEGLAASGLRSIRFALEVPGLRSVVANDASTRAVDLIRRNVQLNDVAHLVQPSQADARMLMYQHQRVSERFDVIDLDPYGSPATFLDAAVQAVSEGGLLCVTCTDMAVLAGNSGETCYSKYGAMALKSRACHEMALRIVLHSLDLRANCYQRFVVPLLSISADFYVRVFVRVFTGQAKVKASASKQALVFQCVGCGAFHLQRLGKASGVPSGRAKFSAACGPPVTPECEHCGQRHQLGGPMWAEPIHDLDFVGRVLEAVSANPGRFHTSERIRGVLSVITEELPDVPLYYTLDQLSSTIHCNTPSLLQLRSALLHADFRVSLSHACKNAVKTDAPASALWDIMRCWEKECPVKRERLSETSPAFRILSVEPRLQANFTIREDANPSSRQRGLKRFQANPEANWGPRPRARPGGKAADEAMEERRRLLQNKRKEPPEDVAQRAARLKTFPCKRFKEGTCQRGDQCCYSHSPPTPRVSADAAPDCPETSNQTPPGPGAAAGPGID"}, "source": "the supplement of paper PMC10849652", "note": "This is one part of the list.", "data": [{"compound": "C1=CC=C(C=C1)[C@H](COC2=CC3=C(C=C2)NC(=O)N3)NC(=O)C4=CC=CN(C4=O)CC5=CC(=C(C=C5)F)F", "test": "log2 fold change, soluble protein after heating vs DMSO (PISA); higher = thermal stabilisation; K562 cells, 10 uM, 30 min; active = over 0.2 and 3.5 SD of the protein, either way, in both replicates (recomputed)", "summary_of_the_method": "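Quantification of soluble protein used TMTpro 16plex LC-MS/MS, with channel sums equalised. Samples were the supernatant after 21,000xg for 90 min of pooled aliquots from K562 cells (2×10^6 cells/mL) treated with 10 μM compound for 30 min, heated for 3 min over 48°C-58°C, and extracted in PBS with 0.5% NP-40 at 4°C. Values, from duplicates, describe thermal stability against control samples on a log2 fold-change scale.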", "values": [{"target": "TOR1AIP1 isoform 3 (UniProt Q5JTV8)", "log2 fold change": "inactive: 0.037"}, {"target": "TSC22D1 (UniProt Q15714)", "log2 fold change": "inactive: 0.011"}, {"target": "TPT1 (UniProt P13693)", "log2 fold change": "inactive: -0.048"}, {"target": "TRIP13 (UniProt Q15645)", "log2 fold change": "inactive: -0.015"}, {"target": "TP53BP2 isoform 3 (UniProt Q13625)", "log2 fold change": "inactive: 0.046"}, {"target": "TP53I3 (UniProt Q53FA7)", "log2 fold change": "inactive: 0.031"}, {"target": "TNIK isoform 3 (UniProt Q9UKE5)", "log2 fold change": "inactive: -0.124"}, {"target": "TSC22D2 (UniProt O75157)", "log2 fold change": "inactive: 0.015"}, {"target": "TRAPPC4 (UniProt Q9Y296)", "log2 fold change": "inactive: -0.012"}, {"target": "TOR4A (UniProt Q9NXH8)", "log2 fold change": "inactive: 0.018"}, {"target": "TOMM20 (UniProt Q15388)", "log2 fold change": "inactive: 0.021"}, {"target": "TRNT1 (UniProt Q96Q11)", "log2 fold change": "inactive: -0.03"}, {"target": "TRMT2A (UniProt Q8IZ69)", "log2 fold change": "inactive: -0.008"}, {"target": "TRUB1 (UniProt Q8WWH5)", "log2 fold change": "inactive: -0.014"}, {"target": "TPD52 isoform 3 (UniProt P55327)", "log2 fold change": "inactive: -0.024"}, {"target": "TRMT112 (UniProt Q9UI30)", "log2 fold change": "inactive: -0.037"}, {"target": "TRPV2 (UniProt Q9Y5S1)", "log2 fold change": "inactive: -0.026"}, {"target": "TRIP4 (UniProt Q15650)", "log2 fold change": "inactive: -0.064"}, {"target": "TRAP1 (UniProt Q12931)", "log2 fold change": "inactive: 0.035"}, {"target": "TRMT1 (UniProt Q9NXH9)", "log2 fold change": "inactive: -0.001"}, {"target": "TRIM44 (UniProt Q96DX7)", "log2 fold change": "inactive: -0.027"}, {"target": "TOP1 (UniProt P11387)", "log2 fold change": "inactive: 0.077"}]}]}
